Measured values as given in US20190183798A1, “METHOD FOR TREATING TUMOR” (Johnpro Biotech Inc., priority 2016, published 2019).
At least one compound was matched to its structure with a doubt left.

Test system: HepG2 cells
Assay: Absorption of dextran, CT-B or transferrin in HepG2 cells under specified treatments (flow cytometry), with or without wortmannin
Type: cell-based
Conditions: wortmannin at 37° C. for 15 minutes before dextran, 42° C. or mEHT treatment for 1 hour
Method: In the treatment of wortmannin, an inhibitor of macropinocytosis pathway, the HepG2 cells were treated with phosphate-buffered saline (PBS) or wortmannin at 37° C. for 15 minutes. After the administration of dextran, the cells were applied with 37° C. treatment, 42° C. treatment or mEHT treatment for 1 hour.
The cells were analyzed by flow cytometry.

**Q.** How did the “Effect of wortmannin on the absorption of dextran” value turn out when `COC[C@H]1OC(=O)c2coc3c2[C@@]1(C)C1=C(C3=O)[C@@H]2CCC(=O)[C@@]2(C)C[C@H]1OC(C)=O` [wortmannin] was run?
**A.** Its value is “inhibited the absorption of dextran”.
